Source: PubChem BioAssay AID652243 (Drosophila RNAi Screening Center, 2013)

Screen: 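Fly genes required for human androgen receptor driven transcription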 (primary screen)
System: Drosophila S2R+ cells
Reagent: long dsRNA against Drosophila genes
Time to read-out: 72 h (48 h, then 24 h hormone)
Treatment: synthetic androgen R1881 at 10 nM for 24 h
Measured: 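Per-well raw luminescence of the androgen-driven firefly reporter and of the Renilla control, two replicates each, without normalisation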
Reading the numbers: firefly reporter light: higher = more light from androgen-responsive reporter; Renilla control light: higher = more constitutive control signal (cell number, transfection)
Call rule: 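Hit when the log firefly-to-Renilla ratio dropped or increased by a fixed fold versus the mean of GFP or LacZ controls across duplicate plates; lowering cut given as 1.5 and as 3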
Meaning of the calls: active = hit: reporter lowered or raised; inactive = no hit
The deposit covers about 24,000 reagents; this is a random part of those that have a named target and a result. Over the whole deposit, 246 (1%) were called active. 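Plates not normalised; calls are printed but the firefly/Renilla ratio behind them is not deposited; fold cut for lowering reported inconsistently.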 Raw values are not corrected between plates. A plus sign joins genes that one reagent is predicted to hit. The record does not give: the amount of reagent.

The opening 2 entries as a preview:
| Gene | dsRNA | firefly reporter light, replicate 1 | firefly reporter light, replicate 2 | Renilla control light, replicate 1 | Renilla control light, replicate 2 | activity call |
| --- | --- | --- | --- | --- | --- | --- |
| Cpr65Ec (Cuticular protein 65Ec) | DRSC11025 | 93324 | 1.94e5 | 1.50e6 | 1.56e6 | inactive |
| Cpr65Ec (Cuticular protein 65Ec) | DRSC24191 | 1.17e6 | 1.23e6 | 1.06e6 | 1.00e6 | inactive |

The listing, from the first entry:
| Gene | dsRNA | firefly reporter light, replicate 1 | firefly reporter light, replicate 2 | Renilla control light, replicate 1 | Renilla control light, replicate 2 | activity call |
| --- | --- | --- | --- | --- | --- | --- |
| Cpr65Ec (Cuticular protein 65Ec) | DRSC11025 | 93324 | 1.94e5 | 1.50e6 | 1.56e6 | inactive |
| Cpr65Ec (Cuticular protein 65Ec) | DRSC24191 | 1.17e6 | 1.23e6 | 1.06e6 | 1.00e6 | inactive |
| Tbcc (Tubulin-binding cofactor C) | DRSC00223 | 2.44e5 | 1.32e5 | 6.74e5 | 5.00e5 | inactive |
| Tbcc (Tubulin-binding cofactor C) | DRSC30109 | 1.08e6 | 1.08e6 | 9.00e5 | 1.17e6 | inactive |
| Gr22f (Gustatory receptor 22f) | DRSC00076 | 2.51e5 | 2.56e5 | 6.10e5 | 4.42e5 | inactive |
| Gr22f (Gustatory receptor 22f) | DRSC26841 | 3.45e5 | 3.43e5 | 8.72e5 | 7.88e5 | inactive |
| side-IV + asRNA:CR17025 | DRSC14833 | 1.66e5 | 1.65e5 | 2.75e6 | 2.36e6 | inactive |
| side-IV + asRNA:CR17025 | DRSC15168 | 2.19e5 | 1.63e5 | 3.64e6 | 1.87e6 | inactive |
| Pcmt (Protein-L-isoaspartate (D-aspartate) O-methyltransferase) | DRSC12363 | 57217 | 57709 | 1.16e6 | 9.61e5 | inactive |
| CG33687 | DRSC37822 | 9.29e5 | 6.16e5 | 2.33e6 | 2.27e6 | inactive |
| CG14676 | DRSC12262 | 39482 | 47886 | 1.17e6 | 1.18e6 | inactive |
| scat (scattered) | DRSC02722 | 7.78e5 | 1.00e6 | 1.70e6 | 2.11e6 | inactive |
| scat (scattered) | DRSC27076 | 4.08e5 | 3.28e5 | 8.68e5 | 5.83e5 | inactive |
| Cpr12A (Cuticular protein 12A) | DRSC19722 | 4.72e5 | 5.59e5 | 2.68e6 | 3.96e6 | inactive |
| Vps25 (Vacuolar protein sorting 25) | DRSC06486 | 3.44e5 | 2.28e5 | 1.14e6 | 1.72e6 | inactive |
| CG15118 | DRSC06540 | 8.23e5 | 8.85e5 | 1.20e6 | 1.02e6 | inactive |
| mus201 + Chrac-14 | DRSC03568 | 2.05e5 | 1.38e5 | 1.72e6 | 1.41e6 | inactive |
| mus201 + Chrac-14 | DRSC03575 | 2.54e5 | 2.09e5 | 1.86e6 | 1.83e6 | inactive |
| CG1394 | DRSC19539 | 41477 | 26200 | 1.31e6 | 1.49e6 | inactive |
| CG1394 | DRSC25019 | 7.51e5 | 8.48e5 | 8.88e5 | 9.33e5 | inactive |
| Cpr65Ax2 + Cpr65Ax1 | DRSC10341 | 2.06e5 | 2.78e5 | 2.42e6 | 3.30e6 | inactive |
| Cpr65Ax2 + Cpr65Ax1 | DRSC10344 | 2.32e5 | 1.93e5 | 2.53e6 | 2.24e6 | inactive |
| CG13488 | DRSC04133 | 1.18e5 | 2.70e5 | 1.22e6 | 1.55e6 | inactive |
| sprt (sprite) | DRSC07323 | 7.96e5 | 8.64e5 | 1.96e6 | 1.81e6 | inactive |
| Cyp6a22 (Cytochrome P450 6a22) | DRSC07382 | 1.04e6 | 9.91e5 | 2.27e6 | 2.03e6 | inactive |
| Cyp6a22 (Cytochrome P450 6a22) | DRSC24011 | 3.73e5 | 3.18e5 | 4.91e5 | 4.28e5 | inactive |
| CG8192 | DRSC24995 | 1.19e6 | 1.08e6 | 9.83e5 | 9.47e5 | inactive |
| Tpi (Triose phosphate isomerase) | DRSC16888 | 36755 | 39951 | 3.66e5 | 4.07e5 | inactive |
| myo (myoglianin) | DRSC17174 | 73322 | 1.13e5 | 8.35e5 | 8.03e5 | inactive |
| ssp2 (short spindle 2) | DRSC11052 | 9.23e5 | 2.37e5 | 1.41e6 | 6.74e5 | inactive |
| ssp2 (short spindle 2) | DRSC23906 | 7.16e5 | 1.13e6 | 9.47e5 | 8.98e5 | inactive |
| Tob (Transducer of ERBB2) | DRSC20294 | 73627 | 84886 | 6.78e5 | 8.62e5 | inactive |
| Lsm12a (LSM12 homolog a) | DRSC19702 | 6.29e5 | 5.42e5 | 3.30e6 | 3.54e6 | inactive |
| CG33099 | DRSC15774 | 71725 | 84503 | 6.11e5 | 7.31e5 | inactive |
| CG33099 | DRSC29273 | 5.88e5 | 4.84e5 | 1.25e6 | 1.23e6 | inactive |
| CG14854 | DRSC14978 | 1.42e5 | 1.62e5 | 2.24e6 | 2.79e6 | inactive |
| Cyp6a9 (Cytochrome P450 6a9) | DRSC07385 | 1.02e5 | 98621 | 3.95e6 | 3.95e6 | inactive |
| und (uninitiated) | DRSC03629 | 7.70e5 | 6.76e5 | 1.79e6 | 1.37e6 | inactive |
| CG33459 | DRSC05615 | 1.12e5 | 1.86e5 | 2.92e5 | 3.23e5 | inactive |
| Cog2 (Component of oligomeric golgi complex 2) | DRSC16987 | 1.83e5 | 1.64e5 | 1.97e6 | 2.14e6 | inactive |
| CG42306 + Gint3 | DRSC06934 | 8.51e5 | 9.12e5 | 1.77e6 | 2.02e6 | inactive |
| CG42306 + Gint3 | DRSC29885 | 3.63e5 | 4.14e5 | 8.66e5 | 8.92e5 | inactive |
| Sur-8 | DRSC15794 | 81431 | 59393 | 1.49e6 | 8.70e5 | inactive |
| CCT5 (Chaperonin containing TCP1 subunit 5) | DRSC07357 | 1.17e6 | 5.88e5 | 2.21e6 | 9.99e5 | inactive |
| CCT5 (Chaperonin containing TCP1 subunit 5) | DRSC26229 | 2.18e5 | 1.82e5 | 6.67e5 | 6.71e5 | inactive |
| p38c (p38c MAP kinase) | DRSC22939 | 4.50e5 | 1.04e6 | 9.97e5 | 2.41e6 | inactive |
| p38c (p38c MAP kinase) | DRSC39293 | – | – | – | – | inactive |
| Tap42 (Two A-associated protein of 42kDa) | DRSC02967 | 1.51e5 | 1.91e5 | 9.52e5 | 1.24e6 | inactive |
| Tap42 (Two A-associated protein of 42kDa) | DRSC24168 | 1.08e6 | 7.53e5 | 9.58e5 | 9.29e5 | inactive |
| Cpr78Cb (Cuticular protein 78Cb) | DRSC11847 | 1.95e5 | 1.25e5 | 1.82e6 | 1.90e6 | inactive |
| Cpr78Cb (Cuticular protein 78Cb) | DRSC26957 | 3.96e5 | 2.97e5 | 7.82e5 | 4.52e5 | inactive |
| Snapin + HemK2 | DRSC26185 | 4.95e5 | 5.58e5 | 7.32e5 | 6.04e5 | inactive |
| Saysd1 (SAYSVFN motif domain containing 1) | DRSC14664 | 1.46e5 | 2.02e5 | 1.94e6 | 2.33e6 | inactive |
| mRpL55 (mitochondrial ribosomal protein L55) | DRSC14764 | 2.09e5 | 1.17e5 | 2.55e6 | 2.49e6 | inactive |
| Fur2 (Furin 2) | DRSC19817 | 3.84e5 | 3.89e5 | 2.06e6 | 2.37e6 | inactive |
| Fur2 (Furin 2) | DRSC39258 | – | – | – | – | inactive |
| Fur2 (Furin 2) | DRSC39305 | – | – | – | – | inactive |
| CG11449 | DRSC11662 | 2.20e5 | 1.53e5 | 2.06e6 | 1.66e6 | inactive |
| CG11449 | DRSC29180 | 5.49e5 | 3.88e5 | 1.20e6 | 9.38e5 | inactive |
| kipf (kipferl) | DRSC15446 | 4.27e5 | 3.62e5 | 2.17e6 | 1.89e6 | inactive |
| kipf (kipferl) | DRSC22871 | 7.84e5 | 9.82e5 | 2.93e5 | 2.98e5 | inactive |
| kipf (kipferl) | DRSC29690 | 1.01e6 | 7.80e5 | 2.42e6 | 1.78e6 | inactive |
| mRpL46 (mitochondrial ribosomal protein L46) | DRSC08391 | 58267 | 51914 | 6.85e5 | 5.45e5 | inactive |
| conu (conundrum) | DRSC07810 | 1.81e5 | 1.31e5 | 5.47e5 | 6.06e5 | inactive |
| Clic (Chloride intracellular channel) | DRSC19364 | 1.77e5 | 1.23e5 | 8.01e5 | 7.67e5 | inactive |
| Snx27 (Sorting nexin 27) | DRSC17786 | 3.26e5 | 3.80e5 | 2.34e6 | 3.00e6 | inactive |
| Snx27 (Sorting nexin 27) | DRSC18282 | 2.74e5 | 3.31e5 | 3.51e6 | 3.81e6 | inactive |
| Snx27 (Sorting nexin 27) | DRSC18284 | 2.28e5 | 3.13e5 | 1.71e6 | 1.81e6 | inactive |
| CG18449 | DRSC06754 | 3.98e5 | 3.35e5 | 2.08e6 | 1.42e6 | inactive |
| Obp47a (Odorant-binding protein 47a) | DRSC06255 | 2.58e5 | 2.40e5 | 1.19e6 | 1.45e6 | inactive |
| Obp47a (Odorant-binding protein 47a) | DRSC26247 | 2.56e5 | 2.37e5 | 5.81e5 | 5.77e5 | inactive |
| CG6424 | DRSC05936 | 1.22e6 | 1.30e6 | 2.25e6 | 1.88e6 | inactive |
| CG6424 | DRSC28768 | 7.22e5 | 6.08e5 | 1.86e6 | 1.72e6 | inactive |
| BomS6 (Bomanin Short 6) | DRSC21676 | 6.76e5 | 6.50e5 | 2.56e6 | 1.87e6 | inactive |
| BomS6 (Bomanin Short 6) | DRSC26792 | 4.70e5 | 5.12e5 | 6.85e5 | 7.66e5 | inactive |
